# Data as given in PubChem BioAssay AID1224829 (NIAID, 2016)
# Test: 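Follow-up of TLR4-NF-kappaB regulators using six separate siRNAs for each gene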 (follow-up of hits)
# Cells: mouse RAW264.7 G9 macrophage reporter cells
# Reagents: single siRNA against mouse genes, 100 nM
# Timing: 2 days of siRNA knock-down, then 40 min of LPS before fixing
# Treatment: LPS (Salmonella minnesota R595) at 10 ng/ml
# Detection: 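Imaging of GFP-p65 after 40 min of LPS; nuclear over perinuclear ring intensity ratio, scaled to plate median and non-targeting control wells, given as z-score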
# Scale: p65 translocation z-score and gene median z-score, per vendor: higher = more nuclear NF-kappaB p65 after LPS
# Call rule: 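An siRNA is called active when the mean z-score of its two replicates is above 2 or below -2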
# Meaning of the calls: active = changed p65 translocation (either direction); inactive = no clear change
# The whole screen tested about 3,800 reagents; below is a part drawn at random. 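Calls cover raised and lowered translocation; gene median uses one vendor's three siRNAs; qiagen siRNAs acted more weakly than ambion siRNAs.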 Unmarked entries are inactive. Reagents against one gene are numbered here. No sequences are given here.
The opening 3 records, ahead of the listing:
Target gene,reagent,siRNA vendor or control pool,"p65 translocation z-score, replicate mean","p65 translocation z-score, replicate 1","p65 translocation z-score, replicate 2","gene median z-score, per vendor"
Tex261 (GeneID 21766),1,ambion single siRNA,-0.74,0.123,-1.6,-3.01
Tex261 (GeneID 21766),2,ambion single siRNA,-3.01 (active),-4.11,-1.9,-3.01
Tex261 (GeneID 21766),3,ambion single siRNA,-5.67 (active),-5.5,-5.83,-3.01

The list itself, repeating the preview:
Target gene,reagent,siRNA vendor or control pool,"p65 translocation z-score, replicate mean","p65 translocation z-score, replicate 1","p65 translocation z-score, replicate 2","gene median z-score, per vendor"
Tex261 (GeneID 21766),1,ambion single siRNA,-0.74,0.123,-1.6,-3.01
Tex261 (GeneID 21766),2,ambion single siRNA,-3.01 (active),-4.11,-1.9,-3.01
Tex261 (GeneID 21766),3,ambion single siRNA,-5.67 (active),-5.5,-5.83,-3.01
Tex261 (GeneID 21766),4,qiagen single siRNA,2.67 (active),1.95,3.39,1.57
Tex261 (GeneID 21766),5,qiagen single siRNA,0.12,-1.39,1.63,1.57
Tex261 (GeneID 21766),6,qiagen single siRNA,0.455,-0.59,1.5,1.57
Aqp7 (GeneID 11832),1,ambion single siRNA,-1,-1.2,-0.807,-1.01
Aqp7 (GeneID 11832),2,ambion single siRNA,-1.79,-0.632,-2.94,-1.01
Aqp7 (GeneID 11832),3,ambion single siRNA,-1.22,-1.62,-0.811,-1.01
Aqp7 (GeneID 11832),4,qiagen single siRNA,0.508,0.257,0.758,-1.83
Aqp7 (GeneID 11832),5,qiagen single siRNA,-1.83,-1.8,-1.87,-1.83
Aqp7 (GeneID 11832),6,qiagen single siRNA,-3.37 (active),-3.82,-2.93,-1.83
Gatm (GeneID 67092),1,ambion single siRNA,-0.872,0.455,-2.2,0.241
Gatm (GeneID 67092),2,ambion single siRNA,0.391,0.241,0.541,0.241
Gatm (GeneID 67092),3,ambion single siRNA,-5.37 (active),-5.37,,0.241
Gatm (GeneID 67092),4,qiagen single siRNA,1.07,1.58,0.57,0.66
Gatm (GeneID 67092),5,qiagen single siRNA,0.25,0.164,0.336,0.66
Gatm (GeneID 67092),6,qiagen single siRNA,1.17,0.751,1.59,0.66
Trim9 (GeneID 94090),1,ambion single siRNA,-0.54,-0.931,-0.149,2.19
Trim9 (GeneID 94090),2,ambion single siRNA,5.85 (active),7.16,4.54,2.19
Trim9 (GeneID 94090),3,ambion single siRNA,,,,2.19
Trim9 (GeneID 94090),4,qiagen single siRNA,1.55,1.61,1.5,-2.43
Trim9 (GeneID 94090),5,qiagen single siRNA,-2.81 (active),-2.51,-3.11,-2.43
Trim9 (GeneID 94090),6,qiagen single siRNA,-3.03 (active),-2.35,-3.71,-2.43
